Out of some 310,000 compounds screened, about 17,000 (5.5%) were called active. Inconclusive means that the source gave no clear call. Such entries were picked first, then a sample of the others. The call rests on the fitted dose curve; in most records, active means well fitted inhibition curve with a large enough effect; inconclusive means small, poorly fitted or top-dose-only effect, or effect the other way; inactive means no such curve, though single readings can be large or run the other way. Potencies of inconclusive entries are doubtful fits and often do not repeat.
biological target: Nuclear receptor ROR-gamma (Mus musculus) (UniProt P51450); test: qHTS for inhibitors of ROR gamma transcriptional activity; details: Drosophila S2 Gal4-RORgamma UAS-luciferase reporter, 20 h; series mostly up to 53.6 µM; further: nearly all actives have a fitted effect of over 60% in size
Method in brief: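 Luminescence from a UAS-regulated Photinus luciferase reporter in stably transfected Drosophila Schneider cells is measured; decreased signal marks ROR gamma inhibition. Fusion expression is induced by 700 uM copper sulfate for 20 hr.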
Potency means the concentration at half of the fitted maximal effect.

Protein sequences, listed by entry. Tags and fused reporters are not part of them. Lines headed by an entry give the natural chain unless they say otherwise; changes in a name come on top.
UniProt P51450: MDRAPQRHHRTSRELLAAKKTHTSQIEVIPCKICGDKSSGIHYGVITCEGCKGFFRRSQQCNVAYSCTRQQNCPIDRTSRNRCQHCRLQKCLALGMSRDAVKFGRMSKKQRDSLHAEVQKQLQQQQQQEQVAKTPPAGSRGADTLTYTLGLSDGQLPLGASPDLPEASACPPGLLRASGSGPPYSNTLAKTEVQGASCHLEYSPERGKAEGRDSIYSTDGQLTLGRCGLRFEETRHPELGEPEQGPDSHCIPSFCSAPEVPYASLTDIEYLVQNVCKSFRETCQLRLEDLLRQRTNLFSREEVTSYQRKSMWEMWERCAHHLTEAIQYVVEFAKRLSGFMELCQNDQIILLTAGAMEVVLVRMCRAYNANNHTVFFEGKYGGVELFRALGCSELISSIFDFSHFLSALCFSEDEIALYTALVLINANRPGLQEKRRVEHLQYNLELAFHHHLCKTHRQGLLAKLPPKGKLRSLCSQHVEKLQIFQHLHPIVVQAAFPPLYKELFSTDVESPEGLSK

Row | SMILES | Potency
1 | O=C(O)CCCCCN1C(=O)CSC1=S | active: 5.01 µM
2 | COc1cc(C2CC(c3cccs3)=NN2C(=O)CCl)ccc1OC(F)F (stereo not given) | inconclusive: 15.8 µM [inhibitor, partial curve, poor fit]
3 | NC(=O)SCC(=O)Nc1ccc(Cl)c(Cl)c1 | inconclusive: 35.5 µM [inhibitor, single point]
4 | CCCCN1/C(=C/c2cccc[n+]2C)Sc2cc(NC(C)=O)ccc21 | inactive
5 | CCCOc1ccc(CCc2n[nH]c(=S)n2-c2ccccc2)cc1 | active: 2.82 µM
6 | O=C(Nc1nc2c(s1)CCCC2)c1cc(-c2ccc3c(c2)OCO3)nc2ccccc12 | inactive
7 | Cn1c(=O)oc2cc(S(=O)(=O)Nc3ccc(O)cc3)ccc21 | inconclusive: 10 µM [activator, single point]
8 | O=C(CCC1CCCN(C(=O)c2ccoc2)C1)NCc1ccc(F)c(F)c1 (stereo not given) | inconclusive: 10 µM [activator, partial curve]
9 | O=C(Cn1cnc2ccccc2c1=O)c1ccc2ccccc2c1 | inconclusive: 14.1 µM [activator, single point]
10 | CC(C(=O)Nc1ccc(C(=O)O)c(O)c1)N1C(=O)/C(=C\c2ccco2)SC1=S (stereo not given) | inactive
11 | CC(=O)c1ccc(NC(=O)Nc2ncn(Cc3cccc(C)c3)n2)cc1 | inconclusive: 7.94 µM [activator, single point]
12 | O=C(Nc1ccccc1C(F)(F)F)N1CCN(c2ccc3nnc(-c4ccc(F)cc4)n3n2)CC1 | inconclusive: 35.5 µM [activator, single point]
13 | CCn1c(CCCOc2ccc(Cl)cc2Cl)nnc1SCC(=O)Nc1cc(F)ccc1C | inconclusive: 35.5 µM [activator, single point]
14 | N#C/C(=C\c1cccc([N+](=O)[O-])c1)C(=O)NCc1cccnc1 | inconclusive: 11.2 µM [inhibitor, single point]
15 | CC(C)CCNc1nc(-c2ccco2)c2c(c1C#N)CCCC2 | inactive
16 | CCOC(=O)c1c(NC(=O)CSc2nnc(-c3cccnc3)o2)sc(C)c1C | inconclusive: 35.5 µM [activator, single point]
17 | COCCCn1c(=O)/c(=C\c2ccccc2OC(F)F)s/c1=C(/C#N)C(=O)NC(C)C | inactive
18 | CC(C)(C)NCC(O)COc1ccccc1C(=O)CCc1ccccc1 (stereo not given) | inconclusive: 12.6 µM [inhibitor, partial curve, poor fit]
19 | CCC(C)(C)c1ccc(OCC(=O)Nc2ccncc2)cc1 | inconclusive: 12.6 µM [activator, partial curve]
20 | COc1cc(/C=C2/C(=O)c3cccc([N+](=O)[O-])c3C2=O)c(Br)cc1O | inconclusive: 35.5 µM [inhibitor, single point]

Two entries from above, field by field:
N#C/C(=C\c1cccc([N+](=O)[O-])c1)C(=O)NCc1cccnc1
  Potency: inconclusive: 11.2 µM [inhibitor, single point]
CC(C)CCNc1nc(-c2ccco2)c2c(c1C#N)CCCC2
  Potency: inactive
